The list does not hold the whole screen: it gathers tests that were run many times, whatever their T/C, doses with no T/C, and many T/C values between a quarter and a half above the control. Other doses and runs of a compound stand elsewhere. T/C gives the treated animals as a percentage of the vehicle group. Some doses have a count of surviving animals in place of a T/C: the source files T/C as zero there, which appears to mark a toxic dose or a test without result, not a measured value. Some doses without a T/C left all or most animals alive at the check, yet need not have been tolerated: the source hardly ever lists a survival T/C far under the control, and the zero likely stands for such cases as well. Survivors were counted at the toxicity check, usually on the fifth day, unless a day is given; later deaths do not show. Schedules are NCI's codes, taken here to give the interval after Q, in days (D) or hours (H), and the number of doses after X. Some schedules carry Z or #; the key to these is not given. For survival time, this PubChem deposit counts one and a half times the control or more as active, and values a quarter to a half above the control carry no call in these data; other NCI protocols may use other cut-offs. Some T/C values are followed by the survivors on the day toxicity was checked, most often the fifth; where none is given, no animal had died by that day.
Test system: L1210 leukemia ip in BDF1 mice, survival T/C
Assay: NCI In Vivo Anticancer Drug Screen. Data for tumor model L1210 Leukemia (intraperitoneal) in B6D2F1 (BDF1) mice
Settings: T/C endpoint: mean survival time, higher T/C = longer survival
[1] = dose: 400.0 mg/kg/injection, schedule: Q04DX002 (ip), vehicle: Klucel (hydroxypropylcellulose) (HPC)
[2] = dose: 400.0 mg/kg/injection, schedule: Q01DX001 (ip), vehicle: saline
[3] = dose: 400.0 mg/kg/injection, schedule: Q04DX003 (ip), vehicle: saline
[4] = dose: 200.0 mg/kg/injection, schedule: Q01DX009 (ip), vehicle: saline with Tween-80
[5] = dose: 200.0 mg/kg/injection, schedule: Q01DX001 (ip), vehicle: saline
[6] = dose: 50.0 mg/kg/injection, schedule: Q04DX002 (ip), vehicle: Klucel (hydroxypropylcellulose) (HPC)
[7] = dose: 100.0 mg/kg/injection, schedule: Q04DX002 (ip), vehicle: Klucel (hydroxypropylcellulose) (HPC)

For `Nc1nc2nsnc2nc1N`, which survivor count (dose: 100.0 mg/kg/injection, schedule: Q01DX009 (ip), vehicle: water) is on record?
The survivor count was 3 of 6.

And the survivor count (dose: 200.0 mg/kg/injection, schedule: Q01DX009 (ip), vehicle: water)?
The survivor count was 1 of 6.

And the survivor count (dose: 400.0 mg/kg/injection, schedule: Q01DX009 (ip), vehicle: water)?
The survivor count was 0 of 6.

How did the survivor count [1] turn out when `COc1ccc(NC(=S)Nc2ccc(-c3ccc(NC(=S)Nc4ccc(OC)cc4)cc3)cc2)cc1` was run?
The survivor count was 3 of 3.

`Oc1ccc(C=NCCN=Cc2ccc(O)cc2O)c(O)c1` was tested. Which survivor count (dose: 18.0 mg/kg/injection, schedule: Q01DX009 (ip), vehicle: saline with Tween-80) did it give?
The survivor count was 6 of 6.

For `Cc1cccc(Cl)c1NC(=O)CN(C)C`, which survivor count [2] is on record?
Its survivor count is 2 of 4.

Which results are given for `CC(C)=CCCC(C)C/C=N\N=C(N)N` (configuration not stated)?
survivor count (dose: 120.0 mg/kg/injection, schedule: Q01DX Z (ip), vehicle: carboxymethylcellulose (CMC)): 0 of 6; survivor count (dose: 240.0 mg/kg/injection, schedule: Q01DX Z (oral), vehicle: carboxymethylcellulose (CMC)): 2 of 6; survivor count (dose: 480.0 mg/kg/injection, schedule: Q01DX Z (oral), vehicle: carboxymethylcellulose (CMC)): 0 of 6; survivor count (dose: 960.0 mg/kg/injection, schedule: Q01DX Z (oral), vehicle: carboxymethylcellulose (CMC)): 0 of 6

For `CCCCCCCCCCCC(=O)Nc1ccc(S(=O)(=O)NNc2ccccc2)cc1[N+](=O)[O-]`, which survivor count (dose: 200.0 mg/kg/injection, schedule: Q01DX009 (ip), vehicle: Klucel (hydroxypropylcellulose) (HPC)) is on record?
The survivor count was 5 of 6.

And the survivor count (dose: 400.0 mg/kg/injection, schedule: Q01DX009 (ip), vehicle: Klucel (hydroxypropylcellulose) (HPC))?
The survivor count was 0 of 6.

How did the survivor count (dose: 100.0 mg/kg/injection, schedule: Q01DX001 (ip), vehicle: carboxymethylcellulose (CMC)) turn out when `Cn1c(N)c(N=Cc2ccc(C=Nc3c(N)n(C)c(=O)n(C)c3=O)cc2)c(=O)n(C)c1=O` was run?
The survivor count was 4 of 4.

What does the source list for `CC1CC[N-]CC1.CC1CC[N-]CC1.CC1CC[N-]CC1.CC1CC[N-]CC1.[Pt+4]`?
survivor count (dose: 1.56 mg/kg/injection, schedule: Q04DX003 (ip), vehicle: saline): 0 of 6; T/C (dose: 3.12 mg/kg/injection, schedule: Q01DX009 (ip), vehicle: saline): 126 % of control [5 of 6 alive]; survivor count (dose: 6.25 mg/kg/injection, schedule: Q04DX003 (ip), vehicle: saline): 0 of 6; survivor count (dose: 100.0 mg/kg/injection, schedule: Q04DX003 (ip), vehicle: saline): 1 of 6; survivor count (dose: 200.0 mg/kg/injection, schedule: Q04DX003 (ip), vehicle: saline): 0 of 6; survivor count [3]: 0 of 6

Which T/C (dose: 400.0 mg/kg/injection, schedule: Q01DX001 (ip), vehicle: carboxymethylcellulose (CMC)) does the source give for `O=C(Nc1ccsc1)c1ccccc1` here?
Its T/C is 125 % of control.

How did the survivor count (dose: 200.0 mg/kg/injection, schedule: Q01DX001 (ip), vehicle: other) turn out when `O=C(NCCc1ccccc1)C1CCN(CCc2ccccc2)CC1` was run?
The survivor count was 1 of 4.

And the survivor count (dose: 400.0 mg/kg/injection, schedule: Q01DX001 (ip), vehicle: other)?
The survivor count was 0 of 4.

`O=C1C=CCCCC1` was tested. Which survivor count (dose: 200.0 mg/kg/injection, schedule: Q04DX003 (ip), vehicle: saline with Tween-80) did it give?
Its survivor count is 3 of 6.

What about the survivor count (dose: 400.0 mg/kg/injection, schedule: Q04DX003 (ip), vehicle: saline with Tween-80) of the same compound?
The survivor count was 0 of 6.

Which survivor count (dose: 100.0 mg/kg/injection, schedule: Q01DX009 (ip), vehicle: Klucel (hydroxypropylcellulose) (HPC)) does the source give for `O=C(O)c1ccc(NCc2cccc([N+](=O)[O-])c2)cc1` here?
Its survivor count is 3 of 3.

Which results are given for `CCC(CC)(COC(C)=O)C[N+](C)(C)C`?
survivor count [2]: 2 of 6; survivor count [3]: 0 of 6

What does the source list for `CCOC(=O)c1cc(OCC)nc(SC)n1`?
survivor count (dose: 100.0 mg/kg/injection, schedule: Q01DX Z (ip), vehicle: methylcellulose (MC)): 5 of 6; survivor count (dose: 200.0 mg/kg/injection, schedule: Q01DX Z (ip), vehicle: methylcellulose (MC)): 5 of 6

For `O=C(O)C(CNC(=O)C(F)(F)F)Cc1ccc([N+](=O)[O-])cc1` (configuration not stated), which survivor count (dose: 50.0 mg/kg/injection, schedule: Q01DX009 (ip), vehicle: saline with Tween-80) is on record?
Its survivor count is 3 of 3.

And the survivor count (dose: 50.0 mg/kg/injection, schedule: Q01DX009 (ip), vehicle: saline)?
Its survivor count is 3 of 3.

What about the survivor count [4] of the same compound?
The survivor count was 3 of 3.

Which survivor count [5] does the source give for `CC1=CC(=O)OC2(C1)CC1CCC2CN1C` (configuration not stated) here?
Its survivor count is 0 of 4.

For `Nc1ccc(-c2cc3ccccc3oc2=O)cc1`, which survivor count (dose: 25.0 mg/kg/injection, schedule: Q04DX002 (ip), vehicle: Klucel (hydroxypropylcellulose) (HPC)) is on record?
The survivor count was 0 of 3.

And the survivor count [6]?
The survivor count was 0 of 3.

And the survivor count [7]?
The survivor count was 0 of 3.

What about the survivor count (dose: 200.0 mg/kg/injection, schedule: Q04DX002 (ip), vehicle: Klucel (hydroxypropylcellulose) (HPC)) of the same compound?
The survivor count was 0 of 3.

What about the survivor count [1] of the same compound?
Its survivor count is 0 of 3.

How did the T/C (dose: 2.8 mg/kg/injection, schedule: Q01DX001 (ip), vehicle: other) turn out when `Cc1cc(C)c(NC(=O)N(CCCl)N=O)c(C)c1` was run?
Its T/C is 129 % of control.

And the T/C (dose: 5.62 mg/kg/injection, schedule: Q01DX001 (ip), vehicle: other)?
The T/C was 137 % of control.

What about the survivor count (dose: 125.0 mg/kg/injection, schedule: Q01DX001 (ip), vehicle: other) of the same compound?
The survivor count was 6 of 6.

What about the survivor count (dose: 128.0 mg/kg/injection, schedule: Q01DX001 (ip), vehicle: other) of the same compound?
The survivor count was 8 of 10.

What about the survivor count (dose: 250.0 mg/kg/injection, schedule: Q01DX001 (ip), vehicle: other) of the same compound?
The survivor count was 2 of 6.

And the survivor count (dose: 500.0 mg/kg/injection, schedule: Q01DX001 (ip), vehicle: other)?
The survivor count was 0 of 6.

How did the survivor count (dose: 400.0 mg/kg/injection, schedule: Q04DX003 (ip), vehicle: Klucel (hydroxypropylcellulose) (HPC)) turn out when `COC(=O)CCC(NC(=O)OCc1ccccc1)C(=O)O` (configuration not stated) was run?
Its survivor count is 0 of 6.

`CC1=C(/C=C/C(C)=C/C=C/C(C)=C/C(=O)O)C(C)(C)CCC1` was tested. Which survivor count (dose: 134.0 mg/kg/injection, schedule: Q01DX009 (ip), vehicle: steroid suspending solution) did it give?
Its survivor count is 6 of 6.

What about the survivor count (dose: 200.0 mg/kg/injection, schedule: Q01DX009 (ip), vehicle: steroid suspending solution) of the same compound?
Its survivor count is 5 of 6.

What about the survivor count (dose: 300.0 mg/kg/injection, schedule: Q01DX009 (ip), vehicle: steroid suspending solution) of the same compound?
The survivor count was 6 of 6.

How did the survivor count [5] turn out when `CC1(C)CCC(C)(C)c2c1ccc(O)c2Sc1c(O)ccc2c1C(C)(C)CCC2(C)C` was run?
The survivor count was 6 of 6.

What about the survivor count [2] of the same compound?
Its survivor count is 6 of 6.

How did the survivor count (dose: 200.0 mg/kg/injection, schedule: Q01DX009 (ip), vehicle: saline) turn out when `NN1CCCC1` was run?
Its survivor count is 3 of 6.

What about the survivor count [3] of the same compound?
Its survivor count is 6 of 6.

Which results are given for `CCCc1c(Cl)nc(Cl)nc1Cl`?
survivor count (dose: 75.0 mg/kg/injection, schedule: Q01DX009 (ip), vehicle: acetone): 3 of 6; T/C (dose: 100.0 mg/kg/injection, schedule: Q04DX003 (ip), vehicle: acetone): 131 % of control [5 of 6 alive]; survivor count (dose: 150.0 mg/kg/injection, schedule: Q01DX009 (ip), vehicle: acetone): 0 of 6; survivor count (dose: 200.0 mg/kg/injection, schedule: Q04DX003 (ip), vehicle: acetone): 1 of 6; survivor count (dose: 400.0 mg/kg/injection, schedule: Q04DX003 (ip), vehicle: acetone): 0 of 6

Which survivor count (dose: 400.0 mg/kg/injection, schedule: Q04DX003 (ip), vehicle: saline sonified) does the source give for `CC(C)N(C)C(C)(C)CO` here?
Its survivor count is 1 of 6.

For `Cc1ccc(N)c(Br)c1`, which survivor count [4] is on record?
Its survivor count is 2 of 6.

For `C=C1C(=O)OC2C(=O)OC(CCCCCCCC)C12` (configuration not stated), which survivor count [6] is on record?
Its survivor count is 1 of 3.

What about the survivor count [7] of the same compound?
Its survivor count is 1 of 3.

For `COc1cc(NCc2ccccc2)ccc1NC(C)=O`, which survivor count (dose: 60.0 mg/kg/injection, schedule: Q01DX001 (ip), vehicle: carboxymethylcellulose (CMC)) is on record?
Its survivor count is 1 of 6.

What about the survivor count (dose: 150.0 mg/kg/injection, schedule: Q01DX001 (ip), vehicle: carboxymethylcellulose (CMC)) of the same compound?
Its survivor count is 2 of 6.

What about the survivor count (dose: 300.0 mg/kg/injection, schedule: Q01DX001 (ip), vehicle: carboxymethylcellulose (CMC)) of the same compound?
The survivor count was 0 of 6.

With `CC(C)(C)C1CCCC(=O)CC1` (configuration not stated) as the compound, how does the survivor count (dose: 100.0 mg/kg/injection, schedule: Q01DX001 (ip), vehicle: saline) read?
Its survivor count is 2 of 4.

What about the survivor count [5] of the same compound?
Its survivor count is 0 of 4.

What about the survivor count [2] of the same compound?
The survivor count was 0 of 4.

Source: PubChem BioAssay AID248 (DTP/NCI, 2004)
